Some results were stated once for a whole list of compounds, not compound by compound.
Key:
[1] = test system: Spodoptera litura; assay: Effect on Spodoptera litura (chinese cabbage leaf spray); conditions: 500 ppm emulsion sprayed, third instar larvae, 48 hours at 26° C.
[2] = test system: Plutella xylostella; assay: Effect on Plutella xylostella (Chinese cabbage leaf spray); conditions: third instar larvae, 48 hours at 26° C.
[3] = test system: Tetranychus kanzawai; assay: Effect on Tetranychus kanzawai (green bean leaf spray); conditions: 500 ppm emulsion sprayed, female imagoes on green bean leaf, 24 hours at 26° C.
[4] = test system: Nephotettix cincticeps; assay: Effect on Nephotettix cincticeps (rice seedling immersion); conditions: rice seedlings immersed, second instar larvae, 48 hours at 26° C.
[5] = test system: Aphis gossypii; assay: Effect on Aphis gossypii (cucumber seedling spray); conditions: larvae, 48 hours at 26° C.
[6] = 50 ppm sprayed on cucumber seedling
[7] = 500 ppm sprayed on cucumber seedling

With `CNC(=O)/C(=N/OC)c1ccccc1COc1ccc2c(c1C)OC(C)C2=NOC` (centres unmarked) [b-7] as the compound, how does the death rate [1] read?
The death rate was “at least 90%”.

And the death rate ([2]; 500 ppm)?
The death rate was “at least 90%”.

Which death rate [3] does the source give for `CON=C(C(=O)OC)c1ccccc1COc1ccc2c(c1C)OCCC2=NOCc1c(F)c(F)c(F)c(F)c1F` [c-82] here?
Its death rate is “at least 90%”.

Which death rate ([2]; 500 ppm) does the source give for `CNC(=O)/C(=N/OC)c1ccccc1COc1ccc2c(c1C)OCC2=NOC/C=C/Cl` [a-62] here?
The death rate was “at least 90%”.

`C=CCON=C1COc2c1ccc(OCc1ccccc1/C(=N\OC)C(=O)NC)c2C` [a-60] was tested. Which death rate [1] did it give?
The death rate was “at least 90%”.

What does the source list for `CON=C(C(=O)OC)c1ccccc1COc1cc2c(cc1C)C(=NOC)C(C)C2` (single isomer, unassigned) [f-9]?
death rate ([4]; 500 ppm): at least 90%; death rate [3]: at least 90%

Which death rate ([4]; 500 ppm) does the source give for `CCCCON=C1CCOc2c1ccc(OCc1ccccc1C(=NOC)C(=O)NC)c2C` [c-58] here?
Its death rate is “at least 90%”.

And the death rate [3]?
Its death rate is “at least 90%”.

Which results are given for `CNC(=O)C(=NOC)c1ccccc1COc1ccc2c(c1C)OC(C)CC2=NOC` (racemic) [d-11]?
death rate ([4]; 50 ppm): at least 90%; death rate ([4]; 500 ppm): at least 90%; death rate [1]: at least 90%

With `CNC(=O)C(=NOC)c1ccccc1COc1cc2c(cc1C)C(=NOC)C(C)C2` (single isomer, unassigned) [f-11] as the compound, how does the death rate [1] read?
Its death rate is “at least 90%”.

And the death rate ([2]; 500 ppm)?
The death rate was “at least 90%”.

What does the source list for `CCc1c(OCc2ccccc2C(=NOC)C(=O)NC)ccc2c1OCCC2=NOC` [c-30]?
death rate [1]: at least 90%; death rate ([2]; 500 ppm): at least 90%

Which results are given for `CON=C(C(=O)OC)c1ccccc1COc1ccc2c(c1C)OC(C)CC2=NOC` (racemic) [d-10]?
death rate ([4]; 50 ppm): at least 90%; death rate ([4]; 500 ppm): at least 90%; death rate [3]: at least 90%

With `CO/C=C(/C(=O)OC)c1ccccc1COc1ccc2c(c1C)OC(C)C2=NOC` (single isomer, unassigned) [b-5] as the compound, how does the death rate [1] read?
Its death rate is “at least 90%”.

What about the death rate [3] of the same compound?
The death rate was “at least 90%”.

And the death rate ([2]; 500 ppm)?
Its death rate is “at least 90%”.

With `CNC(=O)C(=NOC)c1ccccc1COc1ccc2c(c1C)OCCC2=NOCC=CCl` [c-62] as the compound, how does the death rate [1] read?
Its death rate is “at least 90%”.

And the death rate [3]?
Its death rate is “at least 90%”.

What about the death rate ([2]; 500 ppm) of the same compound?
The death rate was “at least 90%”.

For `CNC(=O)C(=NOC)c1ccccc1COc1ccc2c(c1C)CC(C)C2=NOC` (racemic) [f-4], which death rate [1] is on record?
The death rate was “at least 90%”.

What about the death rate [3] of the same compound?
Its death rate is “at least 90%”.

For `CON=C(C(=O)OC)c1ccccc1COc1ccc2c(c1C)OCCC2=NOCC=CCl` [c-61], which death rate [3] is on record?
The death rate was “at least 90%”.

How did the death rate ([4]; 500 ppm) turn out when `CNC(=O)C(=NOC)c1ccccc1COc1ccc2c(c1C)OCCC2=NOCc1c(F)c(F)c(F)c(F)c1F` [c-83] was run?
The death rate was “at least 90%”.

What about the death rate [3] of the same compound?
Its death rate is “at least 90%”.

For `CON=C(C(=O)OC)c1ccccc1COc1cc2c(cc1C)C(=NOC)C(C)C2` (single isomer, unassigned) [f-10], which death rate ([4]; 500 ppm) is on record?
The death rate was “at least 90%”.

What about the death rate [3] of the same compound?
The death rate was “at least 90%”.

`CNC(=O)C(=NOC)c1ccccc1COc1cc2c(cc1C)C(=NOC)CC2` [e-27] was tested. Which death rate [1] did it give?
Its death rate is “at least 90%”.

What about the death rate ([2]; 500 ppm) of the same compound?
The death rate was “at least 90%”.

Which death rate [3] does the source give for `CCc1c(OCc2ccccc2C(=NOC)C(=O)OC)ccc2c1OCCC2=NOC` [c-29] here?
Its death rate is “at least 90%”.

With `CON=C(C(=O)OC)c1ccccc1COc1ccc2c(c1C)OCCC2=NOCC#N` [c-48] as the compound, how does the death rate ([4]; 500 ppm) read?
The death rate was “at least 90%”.

`CNC(=O)C(=NOC)c1ccccc1COc1ccc2c(c1C)OCCC2=NOCc1cccc2ccccc12` [c-89] was tested. Which death rate [3] did it give?
Its death rate is “at least 90%”.

With `CON=C(C(=O)OC)c1ccccc1COc1ccc2c(c1C)OCCC2=NOCc1ccc(Cl)c(Cl)c1` [c-78] as the compound, how does the death rate [3] read?
Its death rate is “at least 90%”.

Which death rate [1] does the source give for `CNC(=O)C(=NOC)c1ccccc1COc1cc2c(cc1C)C(=NOC)CCO2` [c-27] here?
The death rate was “at least 90%”.

How did the death rate ([4]; 50 ppm) turn out when `COC=C(C(=O)OC)c1ccccc1COc1ccc2c(c1C)OCCC2=NOC` [c-13] was run?
Its death rate is “at least 90%”.

What about the death rate ([4]; 500 ppm) of the same compound?
Its death rate is “at least 90%”.

And the death rate [1]?
Its death rate is “at least 90%”.

What about the death rate [3] of the same compound?
Its death rate is “at least 90%”.

And the death rate ([2]; 50 ppm)?
The death rate was “at least 90%”.

What about the death rate ([2]; 500 ppm) of the same compound?
Its death rate is “at least 90%”.

And the death rate [5, 6]?
The death rate was “at least 90%”.

What about the death rate [5, 7] of the same compound?
Its death rate is “at least 90%”.

How did the death rate [3] turn out when `C=C(Cl)CON=C1CCOc2c1ccc(OCc1ccccc1C(=NOC)C(=O)NC)c2C` [c-64] was run?
Its death rate is “at least 90%”.

What about the death rate ([2]; 500 ppm) of the same compound?
The death rate was “at least 90%”.

How did the death rate ([4]; 500 ppm) turn out when `CON=C1c2ccc(OCc3ccccc3/C(=N\OC)C(=O)OC)c(C)c2OC1C` (centres unmarked) [b-6] was run?
Its death rate is “at least 90%”.

What about the death rate [3] of the same compound?
Its death rate is “at least 90%”.

Which results are given for `CO/C=C(/C(=O)OC)c1ccccc1COc1ccc2c(c1C)OC(C)C2=NOC` (single isomer, unassigned) [b-4]?
death rate ([4]; 500 ppm): at least 90%; death rate [1]: at least 90%; death rate [3]: at least 90%; death rate ([2]; 500 ppm): at least 90%

Which death rate ([4]; 50 ppm) does the source give for `CNC(=O)C(=NOC)c1ccccc1COc1ccc2c(c1C)OCCC2=NOC` [c-16] here?
Its death rate is “at least 90%”.

And the death rate ([4]; 500 ppm)?
Its death rate is “at least 90%”.

And the death rate [1]?
The death rate was “at least 90%”.

And the death rate ([2]; 50 ppm)?
Its death rate is “at least 90%”.

What about the death rate ([2]; 500 ppm) of the same compound?
The death rate was “at least 90%”.

What about the death rate [5, 6] of the same compound?
The death rate was “at least 90%”.

And the death rate [5, 7]?
The death rate was “at least 90%”.

With `CO/N=C(/C(=O)OC)c1ccccc1COc1ccc2c(c1C)OCC2=NOCC=C(C)C` [a-66] as the compound, how does the death rate [3] read?
The death rate was “at least 90%”.

With `CON=C(C(=O)OC)c1ccccc1COc1ccc2c(c1C)OCCC2=NOC` [c-15] as the compound, how does the death rate ([4]; 50 ppm) read?
Its death rate is “at least 90%”.

And the death rate ([4]; 500 ppm)?
Its death rate is “at least 90%”.

And the death rate [3]?
The death rate was “at least 90%”.

What about the death rate ([2]; 50 ppm) of the same compound?
Its death rate is “at least 90%”.

What about the death rate ([2]; 500 ppm) of the same compound?
The death rate was “at least 90%”.

What about the death rate [5, 6] of the same compound?
The death rate was “at least 90%”.

What about the death rate [5, 7] of the same compound?
Its death rate is “at least 90%”.

How did the death rate [3] turn out when `CON=C(C(=O)OC)c1ccccc1COc1ccc2c(c1C)OCCC2=NOCc1cccc(F)c1` [c-80] was run?
Its death rate is “at least 90%”.

`CNC(=O)C(=NOC)c1ccccc1COc1ccc2c(c1C)OCCC2=NOCc1ccc(Cl)c(Cl)c1` [c-79] was tested. Which death rate ([2]; 500 ppm) did it give?
Its death rate is “at least 90%”.

Which death rate [1] does the source give for `C/C=C/CON=C1COc2c1ccc(OCc1ccccc1/C(=N\OC)C(=O)NC)c2C` [a-65] here?
The death rate was “at least 90%”.

What about the death rate [3] of the same compound?
The death rate was “at least 90%”.

And the death rate ([2]; 500 ppm)?
The death rate was “at least 90%”.

For `COC=C(C(=O)OC)c1ccccc1COc1ccc2c(c1C)OC(C)CC2=NOC` (racemic) [d-8], which death rate ([4]; 50 ppm) is on record?
The death rate was “at least 90%”.

What about the death rate ([4]; 500 ppm) of the same compound?
The death rate was “at least 90%”.

What about the death rate [1] of the same compound?
The death rate was “at least 90%”.

What about the death rate [3] of the same compound?
The death rate was “at least 90%”.

And the death rate ([2]; 500 ppm)?
Its death rate is “at least 90%”.

From patent publication US6399542B1, “Alkoxyimino-substituted bicyclic compounds compositions containing the same and method of making such compounds” (Agro-Kanesho Co., Ltd., priority 1997, dated 2002)
